Experimental data: PMC5383037
No constants are given. Whether binding was seen depends on the method and setting. In cells and extracts the contact can be indirect. Some binding calls cover weakened binding; strength is not graded here. One block for each binder: values may come before it.

Protein sequences, listed by entry. Tags and fused reporters are not part of them. Lines headed by an entry give the natural chain unless they say otherwise; changes in a name come on top.
UniProt P62491: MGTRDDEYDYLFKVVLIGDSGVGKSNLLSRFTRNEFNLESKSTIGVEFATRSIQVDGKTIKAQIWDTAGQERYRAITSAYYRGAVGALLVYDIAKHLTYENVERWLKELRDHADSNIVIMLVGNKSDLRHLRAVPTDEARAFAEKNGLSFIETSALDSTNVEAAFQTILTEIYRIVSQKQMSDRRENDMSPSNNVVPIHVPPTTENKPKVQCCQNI

What was measured:
GST-Rab11A-Q70L = GST-Rab11A-Q70L (UniProt P62491); assay: pull-down; GST fusion proteins coupled to glutathione-Sepharose 4B beads (10 uL wet volume) incubated with 100 uL COS-7 lysate containing the T7-tagged protein; lysis buffer 50 mM HEPES-KOH pH 7.2, 150 mM NaCl, 1 mM MgCl2, 1% Triton X-100; washed 3 times with the same buffer at 0.2% Triton X-100; anti-T7 immunoblot; only the target purified
GST-Rab11A-S25N = GST-Rab11A-S25N (UniProt P62491); assay: as above

binding (GST-Rab11A-Q70L): binds
B1: T7-TBC1D12-M (domain or fragment, UniProt O60347 278-490)
chain: QVSRGQSARDHLPPAGPPVPLPAAEQGPAGASARARRSGGFADFFTRNLFPKRTKELKSVVHSAPGWKLFGKVPPRENLQKTSKIIQQEYEARTGRTCKPPPQSSRRKNFEFEPLSTTALILEDRPSNLPAKSVEEALRHRQEYDEMVAEAKKREIKEAHKRKRIMKERFKQEENIASAMVIWINEILPNWEVMRSTRRVRELWWQGLPPSVR

binding (GST-Rab11A-Q70L): no binding
B2: T7-TBC1D12-N (domain or fragment, UniProt O60347 1-277)
chain: MVGPEDAGACSGRNPKLLPVPAPDPVGQDRKVIRATGGFGGGVGAVEPPEEADEEEEADEEEETPPRQLLQRYLAAAGEQLEPGLCYCPLPAGQAGAPPPSAAPRSDACLLGSGSKHRGAEVADGRAPRHEGMTNGDSGFLPGRDCRDLEEARGLARAGGRESRRRRPYGRLRLEGPGDEDADGAGSPSDWASPLEDPLRSCCLVAADAQEPEGAGSDSGDSPASSCSSSEDSEQRGVGAGGPEEGAPPATSAERTNGGAEPRLGFSDIHFNSRNTF

binding (GST-Rab11A-S25N): no binding | binding (GST-Rab11A-Q70L): binds
B3: T7-TBC1D12 (protein, UniProt O60347 1-775)
chain: MVGPEDAGACSGRNPKLLPVPAPDPVGQDRKVIRATGGFGGGVGAVEPPEEADEEEEADEEEETPPRQLLQRYLAAAGEQLEPGLCYCPLPAGQAGAPPPSAAPRSDACLLGSGSKHRGAEVADGRAPRHEGMTNGDSGFLPGRDCRDLEEARGLARAGGRESRRRRPYGRLRLEGPGDEDADGAGSPSDWASPLEDPLRSCCLVAADAQEPEGAGSDSGDSPASSCSSSEDSEQRGVGAGGPEEGAPPATSAERTNGGAEPRLGFSDIHFNSRNTFQVSRGQSARDHLPPAGPPVPLPAAEQGPAGASARARRSGGFADFFTRNLFPKRTKELKSVVHSAPGWKLFGKVPPRENLQKTSKIIQQEYEARTGRTCKPPPQSSRRKNFEFEPLSTTALILEDRPSNLPAKSVEEALRHRQEYDEMVAEAKKREIKEAHKRKRIMKERFKQEENIASAMVIWINEILPNWEVMRSTRRVRELWWQGLPPSVRGKVWSLAVGNELNITPELYEIFLSRAKERWKSFSETSSENDTEGVSVADREASLELIKLDISRTFPSLYIFQKGGPYHDVLHSILGAYTCYRPDVGYVQGMSFIAAVLILNLEEADAFIAFANLLNKPCQLAFFRVDHSMMLKYFATFEVFFEENLSKLFLHFKSYSLTPDIYLIDWIFTLYSKSLPLDLACRVWDVFCRDGEEFLFRTGLGILRLYEDILLQMDFIHIAQFLTKLPEDITSEKLFSCIAAIQMQNSTKKWTQVFASVMKDIKEGDKNSSPALKS
